Source: article PMC6269477
Results are given in words; binding and its absence hold for the method and conditions named. Binding seen in cells or lysates may run through a third protein. Some binding calls cover weakened binding; strength is not graded here.

Tests used:
Experiment in all cases: cross-linking + co-IP; wild-type BW25113 cells cross-linked with DSP; membrane extract (1% Triton X-100, 1 M NaCl) precipitated with antibodies against PBP1A, PBP1B, PBP3 or ZipA on protein G agarose; cross-link reversed, ZipA or FtsN detected by western blot
[1] = target: T1, PBP1A (endogenous) (E. coli (endogenous in BW25113)) (UniProt P02918)
T1 sequence: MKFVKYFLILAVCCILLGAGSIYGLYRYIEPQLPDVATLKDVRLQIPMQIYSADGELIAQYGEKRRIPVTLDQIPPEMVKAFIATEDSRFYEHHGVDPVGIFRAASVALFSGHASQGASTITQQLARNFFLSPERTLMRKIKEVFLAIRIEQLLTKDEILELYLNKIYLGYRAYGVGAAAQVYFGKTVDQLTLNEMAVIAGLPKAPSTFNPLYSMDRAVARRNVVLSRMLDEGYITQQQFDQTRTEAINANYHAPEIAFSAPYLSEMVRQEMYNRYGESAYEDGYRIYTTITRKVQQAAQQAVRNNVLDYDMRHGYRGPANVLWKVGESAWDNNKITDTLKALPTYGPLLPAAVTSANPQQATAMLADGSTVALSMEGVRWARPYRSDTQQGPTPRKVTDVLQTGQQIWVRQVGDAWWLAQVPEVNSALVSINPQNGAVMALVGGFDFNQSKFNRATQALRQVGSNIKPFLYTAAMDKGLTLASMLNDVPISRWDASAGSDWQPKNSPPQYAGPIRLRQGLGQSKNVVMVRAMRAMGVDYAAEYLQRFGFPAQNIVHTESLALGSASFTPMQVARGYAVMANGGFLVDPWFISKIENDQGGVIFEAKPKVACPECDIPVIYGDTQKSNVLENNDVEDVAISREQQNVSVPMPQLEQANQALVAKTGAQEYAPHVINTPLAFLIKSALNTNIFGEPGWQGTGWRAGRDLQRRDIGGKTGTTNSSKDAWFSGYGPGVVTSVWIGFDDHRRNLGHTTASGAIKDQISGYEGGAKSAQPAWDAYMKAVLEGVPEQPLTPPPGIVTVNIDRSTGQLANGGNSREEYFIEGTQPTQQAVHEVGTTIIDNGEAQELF

[2] = target: T2, PBP1B (endogenous) (E. coli (endogenous in BW25113)) (UniProt P02919)
T2 sequence: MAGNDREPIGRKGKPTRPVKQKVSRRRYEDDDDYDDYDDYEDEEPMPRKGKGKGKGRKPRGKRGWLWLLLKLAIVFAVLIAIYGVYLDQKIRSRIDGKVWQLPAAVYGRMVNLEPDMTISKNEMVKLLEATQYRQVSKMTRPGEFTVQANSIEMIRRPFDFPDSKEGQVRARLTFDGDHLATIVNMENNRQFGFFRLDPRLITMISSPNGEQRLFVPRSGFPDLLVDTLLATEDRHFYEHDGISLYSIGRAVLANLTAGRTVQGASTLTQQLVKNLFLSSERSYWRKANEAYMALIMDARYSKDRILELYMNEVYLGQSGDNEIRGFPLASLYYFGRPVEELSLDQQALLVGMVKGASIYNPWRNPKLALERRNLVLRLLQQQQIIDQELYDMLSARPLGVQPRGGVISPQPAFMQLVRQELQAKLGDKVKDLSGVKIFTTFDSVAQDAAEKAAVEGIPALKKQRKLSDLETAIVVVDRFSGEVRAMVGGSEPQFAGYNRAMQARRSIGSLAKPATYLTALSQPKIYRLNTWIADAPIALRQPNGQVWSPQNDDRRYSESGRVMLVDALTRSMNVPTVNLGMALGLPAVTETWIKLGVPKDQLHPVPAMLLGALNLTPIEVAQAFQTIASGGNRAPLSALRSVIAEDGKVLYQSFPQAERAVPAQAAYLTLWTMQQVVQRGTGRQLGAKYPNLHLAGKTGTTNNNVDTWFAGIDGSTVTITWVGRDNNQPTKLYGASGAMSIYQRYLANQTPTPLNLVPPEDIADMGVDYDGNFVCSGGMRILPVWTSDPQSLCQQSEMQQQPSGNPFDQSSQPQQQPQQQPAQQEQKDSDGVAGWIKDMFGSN

[3] = target: T3, PBP3 (endogenous) (E. coli (endogenous in BW25113)) (UniProt P0AD68)
T3 sequence: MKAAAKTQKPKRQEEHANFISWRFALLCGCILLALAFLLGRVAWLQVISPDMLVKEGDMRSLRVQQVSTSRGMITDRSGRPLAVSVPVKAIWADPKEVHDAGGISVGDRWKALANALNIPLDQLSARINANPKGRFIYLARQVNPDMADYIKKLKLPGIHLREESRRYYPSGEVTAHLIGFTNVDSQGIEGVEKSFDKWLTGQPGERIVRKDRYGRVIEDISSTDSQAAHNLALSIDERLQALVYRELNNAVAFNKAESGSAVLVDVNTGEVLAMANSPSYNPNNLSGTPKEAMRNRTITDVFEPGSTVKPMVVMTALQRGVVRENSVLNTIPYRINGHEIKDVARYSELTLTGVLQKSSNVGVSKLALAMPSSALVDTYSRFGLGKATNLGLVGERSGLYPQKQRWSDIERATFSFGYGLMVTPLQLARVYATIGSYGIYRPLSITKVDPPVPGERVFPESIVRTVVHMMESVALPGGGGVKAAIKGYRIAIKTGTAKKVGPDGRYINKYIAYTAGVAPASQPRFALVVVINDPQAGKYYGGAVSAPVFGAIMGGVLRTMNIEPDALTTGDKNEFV

binding [1]: binds
binding [2]: binds
binding [3]: binds
Substance: ZipA (endogenous) (from UniProt P77173 1-328)
